Results from PubChem BioAssay AID540303 (National Center for Advancing Translational Sciences (NCATS), 2011).
Hit rate of the full screen: of about 330,000 compounds, about 1,000 (0.3%) were called active. The inconclusive results got no clear call from the source; some entries with a clear call stand among them for comparison. Calls come from the whole dose curve; as a rule, active = well fitted inhibition curve with a large enough effect; inconclusive = small, poorly fitted or top-dose-only effect; inactive = no such curve, though single readings can be large or run the other way; tested in mouse RAW 264.7 cells. Potencies beside an inconclusive call are fits to weak or partial responses and may not hold up.

Test: qHTS for Inhibitors of Cell Surface uPA Generation; note: nearly all actives have a fitted effect of over 55% in size
Conditions: cell surface uPA generation assay; series mostly up to 38.3 µM
Method in brief: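 RAW 264.7, 4000 cells/well, o/n 37 C; cpd 1:5 dilution, up to 38.3 uM final; 24 h 37 C/5% CO2 with reagent; ATP-Lite lum. High ATP = LF entry blocked.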
Potency is the fitted concentration of half-maximal effect.

Row | Structure (SMILES) | Potency
1 | Cc1ccc(S(=O)(=O)N2CCC(=O)N(C(COCc3cccc(C)c3)C(C)C)CC2)cc1 (stereo not given) | inactive
2 | COc1cccc(/C=C2\SC(=S)N(CCC(=O)NC3C=CS(=O)(=O)C3)C2=O)c1 (stereo not given) | inconclusive: 8.91 µM [inhibitor, partial curve]
3 | C/C(=N\N=C(N)N)c1cc(Cl)ccc1Cl | inconclusive: 7.08 µM [inhibitor, partial curve, poor fit]
4 | CCC(Cc1ccccc1)NC(=O)Cn1cccc1C(=O)c1ccccc1 (stereo not given) | inactive
5 | O=C1N[C@H](Cc2ccccc2)COC(=O)[C@@H](Cc2ccc(F)cc2)CC/C=C/C[C@H]1CC(=O)N(CCO)Cc1ccccc1 | inconclusive: 12.6 µM [inhibitor, partial curve, poor fit]
6 | CCOc1ccc(-c2c(C(=O)N/N=C(\C)c3ccccc3OC)nnn2-c2nonc2N)cc1 | inactive
7 | O=C(COc1ccccc1)Nc1nnc(-c2ccc3c(c2)CCCC3)o1 | inconclusive: 14.1 µM [inhibitor, single point]
8 | [O-][n+]1onc2c1CCc1c-2nn(-c2ccccc2Cl)[n+]1[O-] | inconclusive: 2 µM [inhibitor, partial curve]
9 | CCOc1ccc(N2C(=O)c3ccccc3C2O)cc1 (stereo not given) | inconclusive: 7.94 µM [inhibitor, single point]
10 | CCn1c(C)nc2c(C)[n+](CC(=O)c3ccc(Br)cc3)ccc21 | inactive
11 | COc1ccc(OC)c(-c2csc(NC(=O)c3ccc(F)cc3)n2)c1 | inconclusive: 10 µM [inhibitor, partial curve, poor fit]
12 | O=c1c(-c2ccc(Cl)cc2)coc2c(CN3CCOCC3)c(O)ccc12 | inactive
13 | CSc1nc2ccc(NC(=O)c3nn(C(C)C)c(=O)c4ccccc34)cc2s1 | inactive
14 | CCCCNC(=O)C(C)N(CCN(C)C)C(=O)CCCN1C(=O)NC(c2ccc(Cl)cc2)C(C(=O)OCc2ccccc2)=C1C (stereo not given) | inconclusive: 20 µM [inhibitor, single point]
15 | CCOC(=S)SCC(=O)N1CCc2cc(OC)ccc2C1C1C(=O)CCCC1=O (stereo not given) | inconclusive: 10 µM [inhibitor, partial curve, poor fit]
16 | CN1CCN(C(=O)c2cc(COc3ccccc3)on2)[C@@H](c2ccccc2)C1 | inactive
17 | O=C(COC(=O)c1ccc(C(F)(F)F)cc1)NC(=O)NC1CCCC1 | inactive
18 | COc1ccc(-c2nn(-c3ccccc3)cc2/C=N/O)cc1OC | inactive
19 | COc1ccc(CNC(=O)CSc2cccc3cccnc23)cc1 | inactive
20 | Cc1ccc(Nc2nc(-c3cccs3)cs2)nc1 | inconclusive: 5.01 µM [inhibitor, partial curve, poor fit]
21 | Cc1ccc2[nH]c3c(=O)n(CC(=O)N4CCN(C)CC4)ncc3c2c1 | inconclusive: 12.6 µM [inhibitor, single point]
22 | COC/C=C/C1=CC(=O)C[C@H](c2ccc3c(c2)OCO3)C1 | inconclusive: 10 µM [inhibitor, partial curve, poor fit]
23 | CN(C)c1ccc(C(=O)/C=C/c2cccnc2)cc1 | inconclusive: 14.1 µM [inhibitor, partial curve, poor fit]
24 | COc1ccc(C)cc1Nc1n[n+](-c2ccccc2)c(-c2ccc(SC)cc2)s1 | inconclusive: 28.2 µM [inhibitor, single point]

Row | Structure (SMILES) | Potency
25 | O=C(CCc1nnc2ccc(N3CCC4(CC3)OCCO4)nn12)NCc1ccccc1Cl | inactive
26 | O=c1c(Cl)c(Cl)cnn1Cc1ccc(F)cc1 | inconclusive: 7.94 µM [inhibitor, single point]
27 | C[C@H](CO)N1C[C@H](C)[C@@H](CN(C)S(=O)(=O)c2ccccc2)Oc2ccc(NC(=O)Nc3ccc(C(F)(F)F)cc3)cc2C1=O | inconclusive: 28.2 µM [inhibitor, single point]
28 | O=C(N/N=C/c1c[nH]c2ccccc12)c1cc2ccccc2o1 | inconclusive: 12.6 µM [inhibitor, single point]
29 | O=C(Nc1ccc(N2CCCC2)cc1)c1ccccc1F | inconclusive: 1.78 µM [inhibitor, full curve, poor fit]
30 | O=C(OC1CCCCC1)c1ccc(NC(=O)c2ccco2)cc1 | inactive
31 | COCCSc1nc2c(c(=O)[nH]c(=O)n2C)n1Cc1cccc(C)c1 | inconclusive: 20 µM [inhibitor, single point]
32 | CCC1=NN(C(=O)c2ccc(Cl)cc2)C(O)(c2ccc(C)cc2)C1 (stereo not given) | inactive
33 | Cc1ccc(S(=O)(=O)N2CCCC2C(=O)Nc2ccc(O)cc2)cc1 (stereo not given) | inconclusive: 14.1 µM [inhibitor, single point]
34 | COc1ccc(Cl)cc1NC(=S)N1CC(C)OC(C)C1 (stereo not given) | inactive
35 | O=C(Nc1ccc(S(=O)(=O)N2CCOCC2)cc1)c1ccccc1F | inconclusive: 0.01 µM [inhibitor, full curve, poor fit]
36 | CCc1ccc(NC(=O)c2onc(C)c2Cl)cc1 | inconclusive: 11.2 µM [inhibitor, partial curve, poor fit]
37 | CC(C)(C)c1ccc(C(=O)Nc2cccc(C(=O)N3CCOCC3)c2)cc1 | inconclusive: 28.2 µM [inhibitor, single point]
38 | CCCN1CCC(NCc2cn(C)nc2-c2ccc(Oc3ccccc3)cc2)CC1 | inconclusive: 28.2 µM [inhibitor, partial curve, poor fit]
39 | O=C(O)c1[nH]c2ccccc2c1NS(=O)(=O)c1ccc(F)cc1 | inconclusive: 1.12 µM [inhibitor, partial curve, poor fit]
40 | Cc1c(Br)c([N+](=O)[O-])nn1C(C)C(=O)N1CCCc2ccccc21 (stereo not given) | inactive
41 | COc1ccccc1NS(=O)(=O)c1ccc(NN=C2CCCCC2)c([N+](=O)[O-])c1 | inactive
42 | COc1ccccc1NC(=O)Nc1nc(CC(=O)NCc2ccc(F)cc2)cs1 | inconclusive: 8.91 µM [inhibitor, single point]
43 | O=C(O)CCC(=O)N(Cc1ccccc1)Cc1ccccc1 | inconclusive: 11.2 µM [inhibitor, partial curve, poor fit]
44 | CCCCCCCCCCS(=O)(=O)N/N=C/c1ccc(O)cc1 | inconclusive: 10 µM [inhibitor, single point]
45 | Cc1ccc2c(c1)N(CC(=O)NC1CCCCC1)C(=O)c1cccnc1O2 | inactive
46 | Cc1[nH]c(C)c(S(=O)(=O)N2CCN(c3ccccc3F)CC2)c1C(=O)N1CCCCC1 | inactive
47 | CCOc1ccc(OCc2cccc(C(=O)N3CCCC3)c2)cc1 | inconclusive: 14.1 µM [inhibitor, single point]
48 | CCO[C@H]1OC(C(=O)NCc2ccccc2)=C[C@@H](c2ccccc2)[C@@H]1CCCO | inconclusive: 8.91 µM [inhibitor, single point]

Of the compounds above, these have a furan ring, fused or not:
Row | Structure (SMILES) | Potency
28 | O=C(N/N=C/c1c[nH]c2ccccc12)c1cc2ccccc2o1 | inconclusive: 12.6 µM [inhibitor, single point]
30 | O=C(OC1CCCCC1)c1ccc(NC(=O)c2ccco2)cc1 | inactive

Later entries:

Row | Structure (SMILES) | Potency
49 | Cc1sc2nc3ccc(N4CCCC4)nn3c(=O)c2c1C | inconclusive: 8.91 µM [inhibitor, partial curve, poor fit]
50 | CNc1nc2c(C)cccn2c(=O)c1C=Nc1ccc(OC)cc1 | inconclusive: 12.6 µM [inhibitor, single point]
51 | COc1ccccc1N1CCN(C(=O)c2ccc3c(Cl)c4c(nc3c2)CCCC4)CC1 | active: 4.47 µM
52 | COc1ccc(-c2cc3c(=O)n(CC(=O)NCc4cccnc4)ncn3n2)cc1 | inconclusive: 8.91 µM [inhibitor, partial curve, poor fit]
53 | O=C(NCc1cn(-c2ccccc2)nc1-c1ccccc1)c1ccc([N+](=O)[O-])cc1 | inconclusive: 12.6 µM [inhibitor, single point]
54 | Oc1ccc(C[C@H]2CNC(=S)N2CC2CCCN2C[C@H](Cc2ccccc2)N2C[C@H](Cc3ccc(O)cc3)N(CCc3ccccc3)C2=S)cc1 (stereo not given in full) | inconclusive: 28.2 µM [inhibitor, single point]
55 | Brc1ccc(OCc2nc3ccccc3[nH]2)cc1 | inconclusive: 11.2 µM [inhibitor, partial curve, poor fit]
56 | O=C(Nc1ccccn1)c1csc2c1CCCC2 | inactive
57 | CCCCc1ccc(Nc2ncnc3nc[nH]c23)cc1 | inconclusive: 22.4 µM [inhibitor, single point]
58 | Nc1ccc2oc(-c3ccccn3)nc2c1 | inactive
59 | Cc1nc2ccccc2c2c(N)c3ccccc3n12 | inactive
60 | Cc1ccc(Sc2ccc(NC(=O)CCl)cc2)cc1C | active: 12.6 µM
61 | COc1ccc2cc(C(N)=O)/c(=N\NC(=O)c3ccccc3)oc2c1 | inconclusive: 7.94 µM [inhibitor, partial curve, poor fit]
62 | Cc1nc(-c2ccccn2)nc(SCC(=O)N2CCOCC2)c1Cl | inactive
63 | COC(=O)Cc1[nH]n(-c2nc3ccccc3s2)c(=O)c1C(C)=Nc1ccc(OC)cc1 | inconclusive: 7.94 µM [inhibitor, partial curve, poor fit]
64 | COc1cc2[nH]c(C(=O)N3CCc4ccccc43)cc2c(OC)c1OC | inconclusive: 12.6 µM [inhibitor, single point]
65 | CC(=O)c1ccc(-c2cccs2)s1 | inactive
66 | COC(=O)c1nc(NC(=O)c2ccc(Br)cc2)n[nH]1 | inactive
67 | Oc1cccnc1CN1CCOCC1 | inactive
68 | COC(=O)CS(=O)(=O)c1nnc([C@H](Cc2ccccc2)NC(=O)OC(C)(C)C)o1 | inactive
69 | C=C[C@@H]1c2c(F)cccc2N(S(=O)(=O)c2ccc(C)cc2)[C@H](c2ccc(OC(C)=O)cc2)C1(C#N)C#N | inconclusive: 12.6 µM [inhibitor, single point]
70 | Cc1ccc(-n2c(=O)c3cc4c(=O)n(-c5ccc(C)c(C)c5)c(=O)c4c(C(=O)c4ccc(C(=O)O)cc4)c3c2=O)cc1C | inconclusive: 7.94 µM [inhibitor, partial curve, poor fit]

Single values from the entries so far:
Potency with `Cc1ccc2c(c1)N(CC(=O)NC1CCCCC1)C(=O)c1cccnc1O2` is entered as inactive
Potency with `O=C(NCc1cn(-c2ccccc2)nc1-c1ccccc1)c1ccc([N+](=O)[O-])cc1` is entered as inconclusive: 12.6 µM [inhibitor, single point]
